Source: PubChem BioAssay AID504764 (Drosophila RNAi Screening Center, 2011)
The deposit covers about 22,000 reagents; this is an unselected part of those with a known target gene and a result. Of all reagents, 403 (1.9%) got an active call. 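Unnormalised raw counts per well; ratio z-scores behind the hit calls and whether each hit raises or lowers signal are not deposited.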 The numbers tell different reagents against one gene apart. Names joined by + are all predicted targets of the reagent. No sequences are given here. The record does not give: the amount of reagent.

Test: 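Genes whose knock-down alters Notch-dependent transcription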 (primary screen)
Cells: Drosophila Kc167 cells
Reagents: long dsRNA against Drosophila genes
Duration: about 5 days (4 days dsRNA, then 24 h after transfection)
Treatment: transfection of constitutively active membrane-tethered Notch lacking the extracellular domain, read 24 h later
Detection: 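Firefly luciferase from an E(spl)m3 reporter with active Notch, plus control-promoter and uninduced reporter wells for normalisation; unnormalised counts, duplicate wells a and b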
Scale: induced reporter light, run 1, well a and induced reporter light, run 1, well b: higher = more light from the Notch target reporter with active Notch; control promoter light, run 1, well a and control promoter light, run 1, well b: higher = more light from the viral control promoter (cell number, transfection, viability); uninduced reporter light, run 1, well a: higher = more light from the Notch target reporter without active Notch
Hit rule: 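Hit if the duplicate-averaged log2 ratio of induced to control-promoter light gives a plate-wise z beyond ±2, or induced to uninduced beyond ±1.8; weak-control or discordant-duplicate wells dropped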
Meaning of the calls: active = modifier hit (raised or lowered Notch signal); inactive = not a hit

Target gene,reagent no.,"induced reporter light, run 1, well a","induced reporter light, run 1, well b","control promoter light, run 1, well a","control promoter light, run 1, well b","uninduced reporter light, run 1, well a",outcome
CG14658,1,1.25e5,1.03e5,1.32e5,1.40e5,10280,inactive
Vha26,1,82290,83820,64830,72560,5580,inactive
Pli,1,1.70e5,1.99e5,2.50e5,2.46e5,15295,inactive
CG3437,1,1.30e5,94355,1.60e5,1.92e5,6845,inactive
CG2145,1,1.75e5,1.64e5,2.82e5,2.63e5,13865,inactive
GluRIB + CG42509 (retired record),1,2.32e5,2.06e5,3.11e5,3.46e5,13025,inactive
GluRIB + CG42509 (retired record),2,2.86e5,2.07e5,4.63e5,4.14e5,12110,inactive
Or33a,1,1.39e5,1.47e5,1.52e5,1.68e5,12470,inactive
spri,1,69855,75830,44010,44855,9395,inactive
spri,2,71000,65460,1.35e5,1.26e5,5055,inactive
spri,3,1.22e5,1.16e5,1.32e5,1.40e5,7765,inactive
spri,4,1.13e5,1.10e5,2.07e5,1.41e5,10035,inactive
spri,5,80050,73035,1.44e5,1.22e5,6300,inactive
spri,6,88035,98335,1.57e5,1.51e5,7460,inactive
spri,7,,,,,,active
CG33110,1,10495,8420,11375,11220,3340,inactive
CG33110,2,2.69e5,2.66e5,2.95e5,2.48e5,20470,inactive
Hmgcr,1,1.35e5,1.17e5,1.29e5,1.28e5,9310,inactive
RpL29,1,44105,40230,40870,32895,2475,inactive
l(2)27Cb (retired record),1,74710,57410,72960,61390,3990,inactive
Srpk79D,1,1.55e5,1.42e5,75120,77945,8935,inactive
Srpk79D,2,97780,1.07e5,1.16e5,1.17e5,8260,inactive
Ugt49C1,1,41380,42105,45280,36745,2930,inactive
Sras,1,2.37e5,2.92e5,3.05e5,3.16e5,15020,inactive
mtt,1,31060,48600,39740,39230,3265,inactive
mtt,2,1.12e5,1.09e5,1.17e5,1.06e5,6325,inactive
mtt,3,1.82e5,1.71e5,2.21e5,2.33e5,17830,inactive
mtt,4,2.06e5,1.67e5,2.62e5,2.01e5,15895,inactive
cyst,1,1.58e5,1.89e5,1.56e5,1.68e5,15780,inactive
Or85f,1,90960,75405,68945,49620,4535,inactive
E(spl)malpha-BFM,1,71405,92105,1.16e5,1.20e5,10100,inactive
elg1,1,1.21e5,1.41e5,84420,94425,8010,inactive
CG9692,1,1.74e5,1.67e5,2.40e5,1.98e5,9905,inactive
Fas1,1,2.15e5,2.02e5,1.88e5,2.34e5,15300,inactive
